Laboratory results as given in US7456294B2, “Hairpin polyamide” (Japan Science and Technology Agency, priority 2002, dated 2008).
No dose or concentration is given here for some results.

Test system: 39 human cultured cancer cell lines
Experiment: Cytostatic activity on 39 human cultured cancer cell lines
Format: cell-based
Settings: Compound 13 compared with Compound 14
Source text: The first is the proportional relationship between the DNA-alkylating ability and the cytostatic activity (FIG. 8). For example, the mean IC50 values of ImPyDu (−4.59), ImPyDu86 (−5.95) and ImPyLDu86 (−8.25) were reduced gradually as the DNA-alkylating ability was increased.
A further interesting result was obtained when comparing the fingerprint patterns indicating the cytostatic activity of the hairpin sequence-specific alkylating agents ImPyPy-γ-ImPyLDu 36 (13) and ImPyPy-γ-ImPyPyLDu 36 (14) (FIG. 9). In general, a high correlation coefficient (r=0.75 to 1.0) is known to be obtained when comparing the fingerprint patterns between the drugs whose action mechanisms are analogous to each other, and in fact an extremely high analogy was observed among a DNA intercalator, doxorubicin, daunorubicin and epirubicin. […] The influence on the cytostatic activity attributable only to the difference in the base sequence-recognizing ability in spite of the analogy in the structure as observed with these Compound 13 and 14 has never been reported, and thus is one of the most important findings.

| SMILES | correlation of the fingerprint patterns (r) |
| --- | --- |
| COC(=O)C1=C(C)CC2=C1[C@@]13C[C@@H]1CN(C(=O)/C=C/c1cc(NC(=O)c4nc(NC(=O)CCCNC(=O)c5cc(NC(=O)c6cc(NC(=O)c7nc(NC(C)=O)cn7C)cn6C)cn5C)cn4C)cn1C)C3=CC2=O [Compound 13, AcImPyPy-γ-ImPyLCPI] | 0.60 |
| COC(=O)c1c(C)[nH]c2c1[C@@]13C[C@@H]1CN(C(=O)/C=C/c1cc(NC(=O)c4cc(NC(=O)c5nc(NC(=O)CCCNC(=O)c6cc(NC(=O)c7cc(NC(=O)c8nc(NC(C)=O)cn8C)cn7C)cn6C)cn5C)cn4C)cn1C)C3=CC2=O [Compound 14, AcImPyPy-γ-ImPyPyLCPI] | 0.60 |
